Laboratory results: the supplement of paper PMC12067093, “Discovery and optimisation of a covalent ligand for TRIM25 and its application to targeted protein ubiquitination” (Chemical Science, 2025)
The list shows a part of the results.

By UniProt entry, the sequences of proteins in these tests, tags left out. Where a name states a change or a piece, a line headed by the entry shows the natural chain unless it says otherwise.
UniProt P46063: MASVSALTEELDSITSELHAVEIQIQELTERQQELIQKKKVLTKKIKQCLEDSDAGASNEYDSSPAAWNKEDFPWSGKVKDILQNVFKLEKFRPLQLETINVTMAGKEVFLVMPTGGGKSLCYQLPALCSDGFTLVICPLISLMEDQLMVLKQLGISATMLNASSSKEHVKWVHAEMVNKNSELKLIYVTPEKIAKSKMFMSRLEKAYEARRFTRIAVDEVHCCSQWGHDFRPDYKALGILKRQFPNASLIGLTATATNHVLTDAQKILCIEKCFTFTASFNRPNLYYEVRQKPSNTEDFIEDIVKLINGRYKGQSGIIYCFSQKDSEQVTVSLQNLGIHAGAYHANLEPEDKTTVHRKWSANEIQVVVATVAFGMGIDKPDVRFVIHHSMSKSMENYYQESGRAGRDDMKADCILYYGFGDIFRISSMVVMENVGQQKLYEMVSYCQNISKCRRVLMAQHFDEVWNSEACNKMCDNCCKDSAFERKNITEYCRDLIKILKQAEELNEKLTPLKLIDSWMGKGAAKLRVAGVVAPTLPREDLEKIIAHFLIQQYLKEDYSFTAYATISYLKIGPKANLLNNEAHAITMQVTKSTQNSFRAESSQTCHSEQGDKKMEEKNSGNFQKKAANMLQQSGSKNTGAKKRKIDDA
UniProt Q5XPI4: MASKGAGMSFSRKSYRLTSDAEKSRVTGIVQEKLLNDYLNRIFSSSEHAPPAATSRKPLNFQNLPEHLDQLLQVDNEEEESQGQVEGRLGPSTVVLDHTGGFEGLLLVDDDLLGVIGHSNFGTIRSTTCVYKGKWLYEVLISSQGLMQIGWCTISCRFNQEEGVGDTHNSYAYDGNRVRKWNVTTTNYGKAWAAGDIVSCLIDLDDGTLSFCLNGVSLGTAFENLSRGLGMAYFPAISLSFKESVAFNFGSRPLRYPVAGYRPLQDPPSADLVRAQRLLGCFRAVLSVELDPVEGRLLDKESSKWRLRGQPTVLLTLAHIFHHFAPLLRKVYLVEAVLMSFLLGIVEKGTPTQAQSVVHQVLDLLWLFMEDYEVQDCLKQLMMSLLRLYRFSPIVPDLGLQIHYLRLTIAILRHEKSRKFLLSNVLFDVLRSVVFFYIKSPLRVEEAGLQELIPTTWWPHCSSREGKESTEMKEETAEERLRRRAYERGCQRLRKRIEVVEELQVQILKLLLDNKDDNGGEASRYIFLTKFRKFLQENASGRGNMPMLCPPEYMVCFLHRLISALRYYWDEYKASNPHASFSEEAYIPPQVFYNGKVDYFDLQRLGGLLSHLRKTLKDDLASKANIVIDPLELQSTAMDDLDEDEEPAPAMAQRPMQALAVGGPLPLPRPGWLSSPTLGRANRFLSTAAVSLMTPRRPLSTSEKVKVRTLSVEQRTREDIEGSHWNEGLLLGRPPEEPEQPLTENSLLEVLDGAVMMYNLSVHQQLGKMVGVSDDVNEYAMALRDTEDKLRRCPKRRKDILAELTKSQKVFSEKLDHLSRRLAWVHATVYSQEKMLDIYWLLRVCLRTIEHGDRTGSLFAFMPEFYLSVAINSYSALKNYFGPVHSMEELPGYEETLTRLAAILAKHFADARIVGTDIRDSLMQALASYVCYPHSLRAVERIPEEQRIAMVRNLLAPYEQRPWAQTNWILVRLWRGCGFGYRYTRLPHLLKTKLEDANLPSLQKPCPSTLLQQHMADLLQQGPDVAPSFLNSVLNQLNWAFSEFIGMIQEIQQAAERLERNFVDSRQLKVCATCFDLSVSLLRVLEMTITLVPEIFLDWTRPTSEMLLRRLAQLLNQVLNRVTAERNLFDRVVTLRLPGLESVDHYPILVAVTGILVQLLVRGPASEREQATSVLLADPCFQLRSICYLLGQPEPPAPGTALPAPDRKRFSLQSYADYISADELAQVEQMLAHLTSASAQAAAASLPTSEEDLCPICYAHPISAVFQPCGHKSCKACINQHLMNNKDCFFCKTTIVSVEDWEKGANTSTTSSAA
UniProt Q13129: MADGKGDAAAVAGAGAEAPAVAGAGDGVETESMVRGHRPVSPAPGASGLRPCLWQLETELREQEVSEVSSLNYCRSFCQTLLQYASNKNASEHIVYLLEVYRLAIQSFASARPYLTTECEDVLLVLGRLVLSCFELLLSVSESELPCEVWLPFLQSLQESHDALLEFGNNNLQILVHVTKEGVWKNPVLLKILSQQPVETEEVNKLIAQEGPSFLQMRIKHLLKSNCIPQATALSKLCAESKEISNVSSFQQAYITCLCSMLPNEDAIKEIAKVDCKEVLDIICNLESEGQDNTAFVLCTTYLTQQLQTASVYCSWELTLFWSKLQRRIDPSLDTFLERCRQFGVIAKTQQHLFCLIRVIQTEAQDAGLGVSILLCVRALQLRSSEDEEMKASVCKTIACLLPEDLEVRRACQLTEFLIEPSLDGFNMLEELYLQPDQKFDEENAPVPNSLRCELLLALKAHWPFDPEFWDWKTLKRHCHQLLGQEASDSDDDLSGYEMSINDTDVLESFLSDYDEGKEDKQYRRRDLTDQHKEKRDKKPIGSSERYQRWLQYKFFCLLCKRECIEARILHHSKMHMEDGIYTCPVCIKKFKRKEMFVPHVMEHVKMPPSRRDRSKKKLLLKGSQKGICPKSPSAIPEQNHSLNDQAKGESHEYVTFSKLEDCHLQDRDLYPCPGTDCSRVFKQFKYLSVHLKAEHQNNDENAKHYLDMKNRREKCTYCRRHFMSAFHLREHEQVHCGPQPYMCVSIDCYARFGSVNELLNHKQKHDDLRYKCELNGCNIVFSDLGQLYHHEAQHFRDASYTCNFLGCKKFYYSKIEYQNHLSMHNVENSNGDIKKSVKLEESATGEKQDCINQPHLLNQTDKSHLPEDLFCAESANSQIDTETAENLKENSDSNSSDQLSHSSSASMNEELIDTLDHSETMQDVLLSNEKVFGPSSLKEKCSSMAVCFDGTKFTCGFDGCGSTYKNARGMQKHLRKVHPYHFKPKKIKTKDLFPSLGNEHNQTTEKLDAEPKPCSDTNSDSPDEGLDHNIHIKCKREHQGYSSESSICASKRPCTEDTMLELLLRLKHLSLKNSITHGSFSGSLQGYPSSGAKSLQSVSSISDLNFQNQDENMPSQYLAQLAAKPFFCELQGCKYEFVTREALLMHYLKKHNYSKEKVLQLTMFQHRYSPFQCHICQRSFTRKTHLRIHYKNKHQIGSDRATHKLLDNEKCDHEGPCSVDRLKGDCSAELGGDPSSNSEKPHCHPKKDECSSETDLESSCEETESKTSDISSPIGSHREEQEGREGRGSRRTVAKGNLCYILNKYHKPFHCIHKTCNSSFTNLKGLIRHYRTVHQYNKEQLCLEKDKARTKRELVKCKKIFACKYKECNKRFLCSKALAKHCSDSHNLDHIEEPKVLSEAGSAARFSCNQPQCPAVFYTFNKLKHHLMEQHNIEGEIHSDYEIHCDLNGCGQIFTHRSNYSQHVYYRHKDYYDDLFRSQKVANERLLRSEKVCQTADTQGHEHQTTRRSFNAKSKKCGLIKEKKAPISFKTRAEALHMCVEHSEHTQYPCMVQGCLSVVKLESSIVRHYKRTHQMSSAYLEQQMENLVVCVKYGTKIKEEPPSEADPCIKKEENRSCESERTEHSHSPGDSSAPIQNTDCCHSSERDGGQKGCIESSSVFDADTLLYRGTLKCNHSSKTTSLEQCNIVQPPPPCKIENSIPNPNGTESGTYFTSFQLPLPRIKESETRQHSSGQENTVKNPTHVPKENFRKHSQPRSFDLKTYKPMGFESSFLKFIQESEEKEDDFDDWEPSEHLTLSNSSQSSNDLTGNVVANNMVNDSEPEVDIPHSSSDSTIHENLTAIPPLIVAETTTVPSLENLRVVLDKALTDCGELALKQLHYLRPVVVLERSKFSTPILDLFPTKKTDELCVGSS
UniProt O00584, whole entry, looked up: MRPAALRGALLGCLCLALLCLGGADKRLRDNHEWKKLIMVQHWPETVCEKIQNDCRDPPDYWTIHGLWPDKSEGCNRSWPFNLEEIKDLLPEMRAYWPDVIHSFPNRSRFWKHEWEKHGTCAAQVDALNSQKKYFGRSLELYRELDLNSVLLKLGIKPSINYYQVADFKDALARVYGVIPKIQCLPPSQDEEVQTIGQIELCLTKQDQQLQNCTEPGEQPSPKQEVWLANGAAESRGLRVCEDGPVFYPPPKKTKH
UniProt Q9NTX7: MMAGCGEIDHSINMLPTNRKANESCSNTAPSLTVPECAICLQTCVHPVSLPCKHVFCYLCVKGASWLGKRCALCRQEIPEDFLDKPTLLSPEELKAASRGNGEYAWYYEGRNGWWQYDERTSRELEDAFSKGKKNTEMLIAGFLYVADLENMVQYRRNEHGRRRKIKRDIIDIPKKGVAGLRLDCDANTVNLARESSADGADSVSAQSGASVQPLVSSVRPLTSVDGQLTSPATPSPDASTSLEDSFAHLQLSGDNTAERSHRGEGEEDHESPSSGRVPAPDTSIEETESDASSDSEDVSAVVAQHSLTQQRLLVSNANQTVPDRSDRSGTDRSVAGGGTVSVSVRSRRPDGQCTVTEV
UniProt Q9BV68: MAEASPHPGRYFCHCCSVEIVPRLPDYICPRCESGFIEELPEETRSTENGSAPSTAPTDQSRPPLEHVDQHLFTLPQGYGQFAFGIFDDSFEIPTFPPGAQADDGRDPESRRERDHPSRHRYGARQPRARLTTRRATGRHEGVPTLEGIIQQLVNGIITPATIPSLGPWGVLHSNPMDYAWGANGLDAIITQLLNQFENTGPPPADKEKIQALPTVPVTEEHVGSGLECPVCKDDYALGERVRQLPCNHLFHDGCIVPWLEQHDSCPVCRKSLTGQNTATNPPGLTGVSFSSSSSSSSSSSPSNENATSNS
UniProt Q9P260: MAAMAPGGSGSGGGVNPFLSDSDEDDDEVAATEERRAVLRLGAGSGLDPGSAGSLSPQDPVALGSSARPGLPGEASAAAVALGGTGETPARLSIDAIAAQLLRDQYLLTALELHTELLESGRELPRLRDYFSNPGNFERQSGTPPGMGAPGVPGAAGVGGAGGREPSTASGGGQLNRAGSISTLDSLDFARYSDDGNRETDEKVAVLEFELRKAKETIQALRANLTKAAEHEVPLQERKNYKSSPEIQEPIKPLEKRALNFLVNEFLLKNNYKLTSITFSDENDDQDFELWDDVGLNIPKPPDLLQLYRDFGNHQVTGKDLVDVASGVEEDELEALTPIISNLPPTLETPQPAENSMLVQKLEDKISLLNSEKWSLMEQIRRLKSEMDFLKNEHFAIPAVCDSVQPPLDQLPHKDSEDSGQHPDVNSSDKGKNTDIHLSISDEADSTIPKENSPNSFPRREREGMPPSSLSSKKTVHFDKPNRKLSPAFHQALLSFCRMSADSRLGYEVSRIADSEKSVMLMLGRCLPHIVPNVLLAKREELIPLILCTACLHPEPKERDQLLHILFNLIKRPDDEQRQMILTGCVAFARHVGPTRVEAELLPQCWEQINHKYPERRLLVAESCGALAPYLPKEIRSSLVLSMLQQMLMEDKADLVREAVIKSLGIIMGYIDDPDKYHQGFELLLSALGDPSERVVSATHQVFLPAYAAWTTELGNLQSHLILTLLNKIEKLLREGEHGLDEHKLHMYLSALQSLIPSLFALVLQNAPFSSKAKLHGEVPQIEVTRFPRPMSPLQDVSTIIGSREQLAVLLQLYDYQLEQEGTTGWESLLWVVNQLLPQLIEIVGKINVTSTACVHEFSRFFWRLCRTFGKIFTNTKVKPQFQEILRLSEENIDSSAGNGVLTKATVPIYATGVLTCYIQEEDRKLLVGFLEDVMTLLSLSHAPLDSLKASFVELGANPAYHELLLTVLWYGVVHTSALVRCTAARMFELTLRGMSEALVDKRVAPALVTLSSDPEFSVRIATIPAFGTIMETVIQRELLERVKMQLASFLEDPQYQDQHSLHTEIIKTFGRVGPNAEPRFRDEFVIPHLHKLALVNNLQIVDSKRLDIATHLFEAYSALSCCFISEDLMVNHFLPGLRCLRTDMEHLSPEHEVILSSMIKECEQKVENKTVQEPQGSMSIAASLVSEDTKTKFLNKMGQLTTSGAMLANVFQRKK
UniProt Q9BWE0: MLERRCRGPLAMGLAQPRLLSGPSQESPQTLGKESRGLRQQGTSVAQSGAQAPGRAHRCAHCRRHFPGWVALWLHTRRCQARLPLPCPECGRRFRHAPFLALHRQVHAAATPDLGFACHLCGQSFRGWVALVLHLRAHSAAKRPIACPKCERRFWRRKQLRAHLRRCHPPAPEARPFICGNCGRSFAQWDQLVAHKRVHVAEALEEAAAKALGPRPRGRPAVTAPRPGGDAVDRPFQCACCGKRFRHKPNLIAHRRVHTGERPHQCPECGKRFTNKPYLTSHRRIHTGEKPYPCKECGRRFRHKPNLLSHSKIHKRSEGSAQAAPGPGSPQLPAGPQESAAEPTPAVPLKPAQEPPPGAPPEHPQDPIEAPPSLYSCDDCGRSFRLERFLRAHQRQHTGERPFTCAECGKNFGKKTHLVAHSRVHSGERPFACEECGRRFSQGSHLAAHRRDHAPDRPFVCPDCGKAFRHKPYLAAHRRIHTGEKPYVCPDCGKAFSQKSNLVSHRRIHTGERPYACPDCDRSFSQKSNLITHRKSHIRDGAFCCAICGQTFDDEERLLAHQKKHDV

Compound: Cc1cc(ccc1-c1ccccc1)C(=O)N1CCCN(CC1)C(=O)CCl [compound 10]
Experiment: probe-labelled cysteine peptide fold change vs DMSO (competition) (log2 fold change); higher = less target engagement (more negative = stronger competition)
Conditions: 10 µM; THP-1; incubation time: 4 h
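Note: competitive profiling in live THP-1 cells: cysteine peptides tagged with an iodoacetamide desthiobiotin (IA-DTB) probe, intensity after compound treatment relative to DMSO-treated cells.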

Row | Target | probe-labelled cysteine peptide fold change
1 | RFFL_Q8WZ73_337_ICMDSPIDCVLLECGHMVTCTK (UniProt Q8WZ73) | 0.195
2 | RNF113A_O15541_285_HYFCESCALQHFR (UniProt O15541) | 0.151
3 | REL_Q04864_208_GGDEIFLLCDK (UniProt Q04864) | 0.136
4 | RHOT2_Q8IXI1_216_SCFGHPLAPQALEDVK (UniProt Q8IXI1) | -0.111
5 | RECQL_P46063_223+224_IAVDEVHCCSQWGHDFRPDYK (UniProt P46063) | -0.137
6 | RNF123_Q5XPI4_1277_ACINQHLMNNK (UniProt Q5XPI4) | -0.0494
7 | RFTN1_Q14699_527_GPVQEDKGEQLSPGGLLCGVGVEGEAVQNGPASHSR (UniProt Q14699) | -0.144
8 | RECQL4_O94761_749_TTAEAYHAGMCSR (UniProt O94761) | -0.19
9 | RLF_Q13129_400_TIACLLPEDLEVR (UniProt Q13129) | 0.247
10 | REL_Q04864_143_QLNDIEDCDLNVVR (UniProt Q04864) | 0.225
11 | RENBP_P51606_400_CLAMCEEMLGALLSR (UniProt P51606) | 0.331
12 | RNASET2_O00584_48_LIMVQHWPETVCEK (UniProt O00584) | -0.201
13 | RIPOR1_Q6ZS17_289_GLANHVVVGSVSCETK (UniProt Q6ZS17) | -0.0436
14 | RLF_Q13129_749_EHEQVHCGPQPYMCVSIDCYAR (UniProt Q13129) | 0.00348
15 | RENBP_P51606_220_YAELGDWCAR (UniProt P51606) | 0.257
16 | RENBP_P51606_114_CAFVLTR (UniProt P51606) | 0.165
17 | RNF14_Q9UBS8_270_CPSVATPGQVK (UniProt Q9UBS8) | -0.197
18 | REST_Q13127_945_HQTDSIVCEMK (UniProt Q13127) | -0.119
19 | RNF146_Q9NTX7_57_HVFCYLCVK (UniProt Q9NTX7) | -0.00468

Row | Target | probe-labelled cysteine peptide fold change
20 | RINL_Q6ZS11_350_KDEDPGPALETAVCQAVLAPLKPALWTR (UniProt Q6ZS11) | -0.282
21 | RHOT1_Q8IXI2_421_CNVIGVK (UniProt Q8IXI2) | 0.115
22 | RNF126_Q9BV68_16_YFCHCCSVEIVPR (UniProt Q9BV68) | -0.069
23 | RING1_Q06587_69_FCSDCIVTALR (UniProt Q06587) | 0.0116
24 | RLF_Q13129_1642_TEHSHSPGDSSAPIQNTDCCHSSER (UniProt Q13129) | -0.2
25 | RHOT1_Q8IXI2_322_HDLDRDCALSPDELK (UniProt Q8IXI2) | 0.133
26 | RGP1_Q92546_314_TSFSLPIPLSSTPGFCTAIVSLK (UniProt Q92546) | 0.102
27 | RNASEH2A_O75792_24_LSSPVPAVCR (UniProt O75792) | 0.0827
28 | RFC3_P40938_285_LYELLTHCIPPEIIMK (UniProt P40938) | 0.143
29 | RIF1_Q5UIP0_1155_SSLSNNECGSLDK (UniProt Q5UIP0) | -0.539
30 | RNASET2_O00584_55_IQNDCRDPPDYWTIHGLWPDK (UniProt O00584) | -0.0979
31 | RELCH_Q9P260_401_NEHFAIPAVCDSVQPPLDQLPHK (UniProt Q9P260) | -0.293
32 | RIPK1_Q13546_325_MQSLQLDCVAVPSSR (UniProt Q13546) | -0.165
33 | RICTOR_Q6R327_1651_YPQTFDDICLYSEVSHLLSHCTFR (UniProt Q6R327) | -0.357
34 | REPIN1_Q9BWE0_269_VHTGERPHQCPECGKR (UniProt Q9BWE0) | 0.193
35 | RING1_Q06587_398_VSRPLELCYAPTK (UniProt Q06587) | -0.307
36 | REL_Q04864-2_304_LCQDHVNFPERPRPGLLGSIGEGR (UniProt Q04864) | -0.131
37 | RHOT1_Q8IXI2_522_IPCLIVAAK (UniProt Q8IXI2) | 0.16
38 | RIPOR1_Q6ZS17_196_EYTESMCLLESELEAQLGEFHLR (UniProt Q6ZS17) | -0.0505

Same assay, conditions: 50 µM; THP-1; incubation time: 4 h

Row | Target | probe-labelled cysteine peptide fold change
39 | RFFL_Q8WZ73_337_ICMDSPIDCVLLECGHMVTCTK (UniProt Q8WZ73) | -0.165
40 | RNF113A_O15541_285_HYFCESCALQHFR (UniProt O15541) | 0.0395
41 | REL_Q04864_208_GGDEIFLLCDK (UniProt Q04864) | -0.0608
42 | RHOT2_Q8IXI1_216_SCFGHPLAPQALEDVK (UniProt Q8IXI1) | -0.195
43 | RECQL_P46063_223+224_IAVDEVHCCSQWGHDFRPDYK (UniProt P46063) | -0.426
44 | RNF123_Q5XPI4_1277_ACINQHLMNNK (UniProt Q5XPI4) | -0.231
45 | RFTN1_Q14699_527_GPVQEDKGEQLSPGGLLCGVGVEGEAVQNGPASHSR (UniProt Q14699) | -0.0344
46 | RECQL4_O94761_749_TTAEAYHAGMCSR (UniProt O94761) | -0.86
47 | RLF_Q13129_400_TIACLLPEDLEVR (UniProt Q13129) | -0.452
48 | REL_Q04864_143_QLNDIEDCDLNVVR (UniProt Q04864) | 0.0252
49 | RENBP_P51606_400_CLAMCEEMLGALLSR (UniProt P51606) | 0.272
50 | RNASET2_O00584_48_LIMVQHWPETVCEK (UniProt O00584) | 0.00823
51 | RIPOR1_Q6ZS17_289_GLANHVVVGSVSCETK (UniProt Q6ZS17) | 0.0415
52 | RLF_Q13129_749_EHEQVHCGPQPYMCVSIDCYAR (UniProt Q13129) | -0.111
53 | RENBP_P51606_220_YAELGDWCAR (UniProt P51606) | -0.0127
54 | RENBP_P51606_114_CAFVLTR (UniProt P51606) | 0.000278
55 | RNF14_Q9UBS8_270_CPSVATPGQVK (UniProt Q9UBS8) | -0.397
56 | REST_Q13127_945_HQTDSIVCEMK (UniProt Q13127) | -0.186
57 | RNF146_Q9NTX7_57_HVFCYLCVK (UniProt Q9NTX7) | -0.239

Row | Target | probe-labelled cysteine peptide fold change
58 | RINL_Q6ZS11_350_KDEDPGPALETAVCQAVLAPLKPALWTR (UniProt Q6ZS11) | -0.375
59 | RHOT1_Q8IXI2_421_CNVIGVK (UniProt Q8IXI2) | 0.201
60 | RNF126_Q9BV68_16_YFCHCCSVEIVPR (UniProt Q9BV68) | -0.143
61 | RING1_Q06587_69_FCSDCIVTALR (UniProt Q06587) | 0.199
62 | RLF_Q13129_1642_TEHSHSPGDSSAPIQNTDCCHSSER (UniProt Q13129) | -0.396
63 | RHOT1_Q8IXI2_322_HDLDRDCALSPDELK (UniProt Q8IXI2) | 0.421
64 | RGP1_Q92546_314_TSFSLPIPLSSTPGFCTAIVSLK (UniProt Q92546) | 0.0133
65 | RNASEH2A_O75792_24_LSSPVPAVCR (UniProt O75792) | -0.112
66 | RFC3_P40938_285_LYELLTHCIPPEIIMK (UniProt P40938) | -0.0545
67 | RIF1_Q5UIP0_1155_SSLSNNECGSLDK (UniProt Q5UIP0) | -0.295
68 | RNASET2_O00584_55_IQNDCRDPPDYWTIHGLWPDK (UniProt O00584) | -0.209
69 | RELCH_Q9P260_401_NEHFAIPAVCDSVQPPLDQLPHK (UniProt Q9P260) | -0.0895
70 | RIPK1_Q13546_325_MQSLQLDCVAVPSSR (UniProt Q13546) | -0.687
71 | RICTOR_Q6R327_1651_YPQTFDDICLYSEVSHLLSHCTFR (UniProt Q6R327) | -0.603
72 | REPIN1_Q9BWE0_269_VHTGERPHQCPECGKR (UniProt Q9BWE0) | -0.0358
73 | RING1_Q06587_398_VSRPLELCYAPTK (UniProt Q06587) | -0.358
74 | REL_Q04864-2_304_LCQDHVNFPERPRPGLLGSIGEGR (UniProt Q04864) | -0.283
75 | RHOT1_Q8IXI2_522_IPCLIVAAK (UniProt Q8IXI2) | 0.193
76 | RIPOR1_Q6ZS17_196_EYTESMCLLESELEAQLGEFHLR (UniProt Q6ZS17) | 0.0867
